Measurements: the supplement of paper PMC4683952
This is one part of the list. How the calls were made is not given here. Single values are uncertain here, since repeats match poorly.

System: Lgr5 (MarsCy1-Lgr5-EGFP, U2OS)
Assay: cell-surface Lgr5 expression (SCi1 fluorescence, background-subtracted) relative to WT DMSO (fold of DMSO control); higher = more Lgr5 at the plasma membrane
Settings: U2OS MarsCy1-Lgr5-EGFP stable; treatment time: overnight; library: Kinase Gold; 20 µM
Description: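 U2OS cells stably expressing MarsCy1-Lgr5-EGFP in 384-well plates were incubated overnight with single-dose compounds. Cell-surface Lgr5 was stained with SCi1 and scanned at 700 nm on a LI-COR Odyssey. Intensity was background-subtracted (parental U2OS) and expressed relative to WT DMSO wells.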

Compound	cell-surface Lgr5 expression
O=C(O)c1ccc(NC2CC(O)C(CO)O2)cc1 (stereo not drawn)	inactive: 0.947
O=C(/C=C/c1ccccc1)c1ccc2c(c1)OCCCO2	active: 1.49
Cc1nc(-c2ccc(NC(=O)/C=C\C(=O)O)cc2)cs1	inactive: 0.971
Clc1ccc(OCc2cn3ccccc3n2)c2ncccc12	inactive: 0.846
O=C(NC(=S)NCc1ccccc1)c1cccnc1	inactive: 0.858
COc1ccccc1N1CC(O)=C(c2nc3ccccc3c(=O)[nH]2)C1=N	inactive: 0.969
CCn1c(=O)c(C(=O)NNC(C)=O)c(O)c2ccccc21	inactive: 0.699
COc1cccc(NC2SC(=O)N(c3ccccc3)C2=O)c1 (stereo not drawn)	inactive: 0.837
Cc1ccccc1NC(=O)CSc1nc(N)cc(=O)[nH]1	inactive: 0.736
O=C(NNC(=S)NC(=O)c1cccnc1)c1ccccc1	inactive: 0.645
O=C(O)c1ccccc1C(=O)NNc1ccccc1[N+](=O)[O-]	inactive: 0.875
COc1ccc(Nc2nc(CC(=O)O)cs2)cc1	inactive: 0.854
Cc1cc(C)nc(NC(=O)c2ccccc2C(=O)O)n1	inactive: 0.688
NNC(=O)c1cc(-c2ccc(Cl)cc2)n[nH]1	inactive: 0.837
O=C(Nc1nc2ccccc2s1)c1ccc2c(c1)OCCO2	inactive: 0.6
O=C(Cc1ccc(Cl)cc1)NNC(=S)NC(=O)c1cccnc1	inactive: 0.659
O=C(/C=C/c1ccco1)c1ccc(NC(=O)c2cccs2)cc1	inactive: 0.958
Cc1cn2c3c(=O)[nH]c(=O)n(C)c3nc2n1-c1ccccc1	inactive: 0.931

Part of the list above in order of length of the SMILES, low to high:
Compound	cell-surface Lgr5 expression
Clc1ccc(OCc2cn3ccccc3n2)c2ncccc12	inactive: 0.846
Cc1ccccc1NC(=O)CSc1nc(N)cc(=O)[nH]1	inactive: 0.736
O=C(O)c1ccccc1C(=O)NNc1ccccc1[N+](=O)[O-]	inactive: 0.875
